The record followed here is PubChem BioAssay AID1508600 (Functional Genomics Laboratory (NCATS/FGL), 2020).

Out of some 53,000 sequences screened, about 3,700 (7%) were called active.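 The calls were made as follows: active = gene knockdowns whose robust z-score for IL-1 alpha signal is at least 2 or at most -2, so actives lie on both sides; inactive = the rest.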 This is one part of the list.

The nature of the assay: Components of the Cytosolic LPS Sensing Pathway: Gene Identification via Genome-wide siRNA Screen.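 Also: robust z of the log signal after scaling to non-targeting control siRNA wells of the plate.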 The settings on record: RAW264.7 macrophages, IL-1a HTRF, actives lie on both sides, screened at 100 nM (by protocol), cells primed 5 h with Pam3CSK4 first. The method in brief:
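Three distinct siRNAs per gene were tested singly at 100 nM in RAW264.7 macrophages. Following Pam3CSK4 priming and 24 hour LipidA transfection, IL-1a secretion was read by HTRF.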
(In general: In TR-FRET formats the signal depends on donor and acceptor labels being close together.)
With GGAAGUGAGGGAGAACAUCTT against Fchsd1, the z-score was inactive: -1.56.
As to GGAUGCUGUAACACUUUAUTT against Bcl6, the z-score was active: 3.31.
With GCAUUACUGAUUCUUUCUUTT against Vmn1r199, the z-score is inactive: -0.771.
The result for GCCUCUUAAUGCUUUUGUATT against Sfxn1 reads inactive: -0.272; that for GGAAAUGUGGUAAUUCCGATT against Cd44, inactive: 0.256; that for GGACCUGUUUGAGCAGAGGTT against Eps8l2, inactive: 0.539.
For GGCAGAGUGCUGACUUCAUTT against Coq8a, the z-score was active: 3.86.
Regarding GCUGCCAUUUCGCCAAUCUTT against Mfap4, the z-score is active: -2.65.
For the sequence “GGAUGCAGCUAGAAUUUAATT against 4932438A13Rik”, the z-score is inactive: 1.04.
Regarding GGAAUUGAAGGGUACUUAATT against Fam111a, the z-score is inactive: -1.97.
Take UGGCUAAACGCACCAAGAATT against Rpl37a: the z-score is inactive: 1.11.
On to GCUUCACCGAGUCAUCAUATT against Mdc1, for which the z-score is inactive: -0.786.
Turning to GGAAGAAAAAAUCGAUCUGTT against Myl1, the z-score is inactive: 0.131.
The result for CGCAGUCGGUCAAGAACAATT against Snrpd2 reads inactive: -1.91; that for GGACUAGCAGUAAUAAAAGTT against Zdhhc9, active: -2.37; that for GGAAAUCUUUAUCUGACAGTT against Cbx3, inactive: -1.88.
GGCAGAGGCAAAAGAACAATT against Mrps5: the z-score is inactive: 1.78.
On to GCGAUGUGCAUCGGAAUGCTT against Adprhl1, for which the z-score is inactive: 1.46.
As to GGUCAAUACUCGAGUGCCATT against Gstm3, the z-score is inactive: -0.493.
For the sequence GGUGAUUCUCAUCUAAAUGTT against Mtdh, the z-score is inactive: -0.389.
Take GGUGCUGUUUAAAACACAGTT against Aurka: the z-score is inactive: 1.25.
With CCUGACCAAUUGAGCUUCCTT against Rusc1, the z-score was inactive: -0.59.
The result for GGGCAAACCAGUUAGCAGATT against Atxn2 reads inactive: 0.278; that for GGCAAUGUCUUUAAAAUACTT against Txndc8, inactive: -0.724; that for “CCUGAACGCAGCAACAAACTT against 1700049L16Rik”, inactive: -1.31.
GGACAUUGUUGUGACAGUGTT against Crppa: the z-score is inactive: 0.0157.
Take CGGGAGUCGGAGAUUUGAATT against Kcnj12: the z-score was inactive: -0.97.
The result for GCACAAAUUAAAUGUUAGGTT against Zhx2 reads inactive: 0.235; that for GGAGGAUGGGUGUGAAUCUTT against Pycr2, inactive: -1.01; that for GGAGUCCUGGUGCAAACUCTT against Cnih2, inactive: 1.05.
In the case of GGAGUACAUGGUACACGUUTT against Fut8, the z-score is inactive: 1.52.
GGCUCAAAACCACACCACUTT against Olfr477: the z-score is active: -2.75.
GGUUAAAAUUUGGAAUCUGTT against Dcaf13: the z-score is inactive: -0.469.
The result for GGCAUUGACCCUUCUUGGATT against Stam2 reads inactive: -0.395.
GGCUUUCGGUCUCUUAGUCTT against Zfp811: the z-score was inactive: -0.875.
Take GCAUUUGAAUCGACUACAGTT against Vti1b: the z-score was inactive: 0.691.
With GGAUCUGUUACUCUGAUACTT against Pias4, the z-score is inactive: 0.847.
On to GCACUGAACCAAUUUGCCCTT against Dsg1c, for which the z-score is inactive: 0.776.
Consider CCAGUGGCCCAUUUUUUGUTT against Slc18a1, for which the z-score was inactive: 0.85.
Regarding GGUACUGCUGUUGUCAAUGTT against Prdx3, the z-score was inactive: -0.235.
For the sequence CGUGUUGAAAAACUCACAATT against Vmn1r30, the z-score was inactive: -1.07.
As to GGUGGAGCGAAUCAAGGAGTT against Nedd8, the z-score is inactive: 0.136.
The result for GGAGCAGUCCUAAUGAUACTT against Phf6 reads inactive: 0.514; that for GCCAACUAGAAAACAACUGTT against Pdzd11, inactive: 1.6.
Turning to GGUGAGCAUCGUGUUCAUCTT against Galnt18, the z-score is inactive: 0.712.
As for GGAGUUAAGAAAGAAAACATT against Cir1, the z-score is inactive: -1.9.
Consider GGAACACUGGAAAAAUGUUTT against Ldhc, for which the z-score is inactive: 0.176.
Turning to GGGUAAUACUCCUAAGAAATT against Fbxo48, the z-score is inactive: 0.00449.
As for GGGAUUGUUUCAAGACAAUTT against Septin2, the z-score was inactive: -0.131.
As to GGAUUGUUGGGAAUUCUUUTT against Zfp60, the z-score was inactive: 0.748.
For CCCAUUAGAUGCUGAAUAUTT against Stmn1 the value was inactive: 0.139; for GGAGGUCCAUGUCCUGCUUTT against Mesp2, inactive: 0.336.
GGAACCUAGGGUUUUCAGCTT against Nkapd1: the z-score was inactive: 1.25.
For GCUUUGAUCGAUUCUCUCGTT against Syt11 the value was inactive: 0.366; for GGUACUGUACUGAUGACAUTT against Dhx32, inactive: -0.769.
Regarding GGCUUUGUAGAAAAUUCAUTT against Polr2a, the z-score was active: -2.15.
The result for GGAAAGAAAGACUAGUAAATT against Cpne1 reads inactive: 0.815; that for GCAGGAAGGUCAUAUCUUATT against Olfr324, inactive: -0.258.
As to GCAUUGUGAGACUAACGUGTT against Dusp7, the z-score is inactive: 1.08.
As to GGAAGACAAAUGAGUUAUGTT against Sema3b, the z-score is inactive: 0.359.
For GGGAAUAGCAAACUUAUCUTT against Nfil3, the z-score was inactive: -0.688.
Turning to GGAGGUUUAAAUUUGAUGUTT against Adcy9, the z-score is inactive: 0.401.
For the sequence GGAACUGCUAAGAGAGAAATT against Ccdc91, the z-score is inactive: 1.19.
As for GGUCAUGAGAGCAUACUGCTT against Ankrd10, the z-score is inactive: -1.53.
Take GGAUUUCAACAUGCCUCUGTT against Pdlim5: the z-score was inactive: 0.777.
Consider GGUGAUGUUCUAACCCUGCTT against Trex1, for which the z-score is inactive: -0.0124.
The result for GGUCGUUAUCACCAGGCUATT against Rpl26 reads inactive: -0.878; that for GGAGCUUUUGGACCACUUGTT against Tmod1, inactive: -0.892.
As for GGCGACUUGUGCCUAACUUTT against Bex4, the z-score is inactive: -0.948.
In the case of GGAGGUCUUUUCUAAGUACTT against Pde6c, the z-score was inactive: 0.625.
As for GGAGAAGGCUGCUGAUAUUTT against Phf8, the z-score is inactive: 0.393.
With GGUGCUUUAUUAGGUAUUCTT against Atp6v1g3, the z-score was inactive: -1.26.
The result for UAUCCACAGUAUGGUGGCUTT against Tas2r140 reads inactive: -0.644; that for GGGAAUUCAUGAUCAAGAUTT against Abca3, inactive: -0.578; that for GGUGCUAUUGUGGAUCAACTT against Zdhhc17, inactive: 0.804.
For “GGGUGAUUUCUACCUUCAATT against D630003M21Rik” the value was inactive: -0.496.
For GGCUAUGCACUACUCAUUGTT against Galk1, the z-score is inactive: -0.607.
Regarding GCUGAUUGCUGAACGACUUTT against Tchp, the z-score was inactive: -1.28.
GCUGUACAGUCAAUACCUGTT against Abhd17a: the z-score is inactive: 1.2.
Take CCACUGCACCACAACUCAATT against Zfp36l2: the z-score is inactive: -0.753.
With CCAGAAGUGAUCGCCUCUUTT against Zfp300, the z-score is inactive: 1.16.
Take CGCGAACUGCUCUAUAGAGTT against Hmgcl: the z-score is inactive: -0.00934.
As to CCAGUAUGUACCACUAAGUTT against Xkr8, the z-score was inactive: 0.0914.
The result for GCUUCUGAUGGACAUUCACTT against Uhrf2 reads inactive: 0.449; that for GAGGAAGUCCACGAAACUATT against Prl3d1, inactive: 0.143.
On to GGGCCAAAUUUGAAUCCCUTT against Rcan1, for which the z-score was active: -2.09.
As for GCCUGAGUGAUAGUGAUUUTT against Fam122b, the z-score was inactive: 0.83.
As to GGCACUGUGGUGUAAAUCCTT against Nnt, the z-score is inactive: -1.53.
Consider GGUUCUGAAUGGUUAUUUCTT against Itih5, for which the z-score was inactive: -0.387.
Regarding GGAUUUCAACAGACAGGUGTT against Paip2b, the z-score is inactive: 0.877.
Regarding GCUAAUAACUGUUCACAUATT against Magi1, the z-score is inactive: 1.97.
For GUCCCUCUGUUCGUCACGUTT against Olfr1449 the value was inactive: -0.434.
For CCAAAUUUGAGAGCAUAAGTT against Armh4, the z-score is inactive: -0.714.
Take CGGCAAGAUGUCUACUAACTT against Wdtc1: the z-score is inactive: 0.655.
For GGGAAAGUGUGUAAUAAAUTT against Egflam the value was inactive: -0.774.
With GCUGAGUAGACUUCGUCUGTT against Kifc2, the z-score was inactive: 1.05.
With CCUGUACAGUUGGAAACAUTT against Snrpd1, the z-score is active: -2.02.
As to GGUGCAGAGAAGUGUAACATT against Slc25a21, the z-score is inactive: -1.6.
Consider GGACUACAUGGAUGCCAUGTT against Prkrip1, for which the z-score is inactive: 0.482.
As to GCUCAUAGGUUUUGAGUAATT against Wt1, the z-score was inactive: 0.982.
Take GGUGAAGAAGUGACACCUGTT against Tppp3: the z-score was inactive: -0.777.
As to GGACCUUUCUCAACUACUATT against Edem2, the z-score is inactive: -0.706.
For GCCAAAAGGAGGACAUACCTT against Mylk3 the value was inactive: 1.08; for GGAAUUUAUUCACCCAGACTT against Sirt2, inactive: -1.51; for GGUCUUACGUUGGAUUUUUTT against Extl3, inactive: -0.716.
Turning to GUCUGAACCCAUCUUCUAUTT against Hcrt, the z-score is inactive: -0.801.
As to CCAAUGGAAAAAGUGCACATT against Olfr1061, the z-score is inactive: -0.789.
